Results as given in article PMC8675923.
These are yes or no findings as the source states them, for the method shown. In cells and extracts the contact can be indirect. Some binding calls cover weakened binding; strength is not graded here.

Sequences of proteins named here, by UniProt entry; tags and fusion partners are left off. Residues count along the entry.
UniProt P03454, residues 18-565: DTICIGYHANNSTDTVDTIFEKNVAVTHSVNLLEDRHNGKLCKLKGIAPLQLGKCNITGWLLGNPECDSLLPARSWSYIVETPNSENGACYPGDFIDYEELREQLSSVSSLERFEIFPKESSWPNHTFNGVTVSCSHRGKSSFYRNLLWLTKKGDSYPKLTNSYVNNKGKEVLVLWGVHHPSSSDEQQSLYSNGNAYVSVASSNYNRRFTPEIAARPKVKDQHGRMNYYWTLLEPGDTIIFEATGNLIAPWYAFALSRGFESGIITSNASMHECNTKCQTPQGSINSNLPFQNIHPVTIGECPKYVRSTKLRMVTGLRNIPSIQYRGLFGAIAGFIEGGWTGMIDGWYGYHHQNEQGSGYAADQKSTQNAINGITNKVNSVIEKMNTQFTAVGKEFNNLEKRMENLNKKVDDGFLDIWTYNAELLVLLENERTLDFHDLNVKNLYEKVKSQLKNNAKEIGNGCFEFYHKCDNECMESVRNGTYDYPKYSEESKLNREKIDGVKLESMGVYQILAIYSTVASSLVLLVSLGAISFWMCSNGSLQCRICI
UniProt Q8TDY8, residues 25-1250: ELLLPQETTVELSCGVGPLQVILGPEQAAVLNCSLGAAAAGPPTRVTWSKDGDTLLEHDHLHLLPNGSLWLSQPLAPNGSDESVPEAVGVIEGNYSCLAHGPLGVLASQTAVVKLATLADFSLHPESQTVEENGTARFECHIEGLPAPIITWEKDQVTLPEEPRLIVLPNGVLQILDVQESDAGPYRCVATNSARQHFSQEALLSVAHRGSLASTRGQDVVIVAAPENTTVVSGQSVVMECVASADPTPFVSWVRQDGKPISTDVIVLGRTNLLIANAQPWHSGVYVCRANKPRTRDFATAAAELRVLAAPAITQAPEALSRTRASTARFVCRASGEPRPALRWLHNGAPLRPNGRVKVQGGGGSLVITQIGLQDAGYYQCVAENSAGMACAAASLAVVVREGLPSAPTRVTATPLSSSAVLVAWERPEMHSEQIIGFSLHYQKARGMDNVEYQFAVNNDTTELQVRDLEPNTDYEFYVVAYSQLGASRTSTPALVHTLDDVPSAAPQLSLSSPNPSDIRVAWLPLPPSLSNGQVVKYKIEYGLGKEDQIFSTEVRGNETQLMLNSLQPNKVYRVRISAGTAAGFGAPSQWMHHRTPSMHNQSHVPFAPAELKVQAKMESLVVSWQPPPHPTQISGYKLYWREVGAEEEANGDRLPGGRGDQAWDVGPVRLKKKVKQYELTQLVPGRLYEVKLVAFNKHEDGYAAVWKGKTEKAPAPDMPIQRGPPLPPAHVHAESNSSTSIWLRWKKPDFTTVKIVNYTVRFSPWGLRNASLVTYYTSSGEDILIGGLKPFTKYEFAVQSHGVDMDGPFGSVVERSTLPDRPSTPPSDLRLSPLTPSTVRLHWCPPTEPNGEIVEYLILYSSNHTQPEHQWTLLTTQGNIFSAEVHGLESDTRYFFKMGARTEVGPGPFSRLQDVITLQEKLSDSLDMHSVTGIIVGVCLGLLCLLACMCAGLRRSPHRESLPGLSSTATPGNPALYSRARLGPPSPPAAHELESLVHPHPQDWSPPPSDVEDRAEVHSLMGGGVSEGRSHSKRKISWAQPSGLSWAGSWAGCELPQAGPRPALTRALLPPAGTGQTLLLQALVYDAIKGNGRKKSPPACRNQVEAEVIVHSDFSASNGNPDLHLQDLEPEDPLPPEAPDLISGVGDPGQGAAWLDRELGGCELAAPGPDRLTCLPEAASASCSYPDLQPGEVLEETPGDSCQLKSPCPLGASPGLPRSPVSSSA

Biological target: hemagglutinin (HA) of A/WSN/33(H1N1) virus, Flag-tagged (influenza A virus A/WSN/33(H1N1)) (UniProt P03454)
Assay: co-IP

immunoglobulin superfamily DCC subclass member 4 (IGDCC4) isoform 1, Myc-tagged (from UniProt Q8TDY8 25-1250)
binding: binds
